In patent US20070083333A1, “Modeling of systemic inflammatory response to infection” (priority 2003, published 2007):
For at least one compound, name, drawing or mass did not settle the structure.

System: irradiated C3H/HeN mice infected with E. coli strain Bort
Assay: PPARγ agonist rosiglitazone, survival in immunocompromised infected mouse model
Assay type: in vivo
Conditions: ceftriaxone 100 μg/mouse at 40 and 92 h

CN(CCOc1ccc(CC2SC(=O)NC2=O)cc1)c1ccccn1 (centres unmarked) [rosiglitazone]
survival compared to diluent alone (50 μg/ml rosiglitazone at 16, 40 and 92 hours post-infection): significant survival advantage
survival compared to diluent alone (200 μg/ml rosiglitazone at 16, 40 and 92 hours post-infection): significant survival advantage
